In PubChem BioAssay AID590 (National Center for Advancing Translational Sciences (NCATS), 2007):
“And” between values parts separate entries of the source, which are not always exact repeats. Equal entries are not always repeated. The campaign covered roughly 59,000 compounds. About 6,500 (11%) were called active. The inconclusive results got no clear call from the source; some entries with a clear call stand among them for comparison. No stated cut-off is given here; in the data, active means max dye-equivalent concentration above about 10 nM; inconclusive means mostly about 1.1 nM to 9.6 nM; inactive means weaker than that.

Test: qHTS Assay for Spectroscopic Profiling in A350 Spectral Region
Details: Compound autofluorescence, 340/450 nm, Alexa 350 dye-equivalents; active compounds read high

SMILES	max dye-equivalent concentration
CCOC(=O)C1CCN(S(=O)(=O)c2ccc(-c3nc4ccccc4s3)s2)CC1	active: 2.3e-08 M
COc1ccc(C2C(C(=O)NCC3CCCO3)c3cc(OC)c(OC)cc3C(=O)N2C)cc1OC (stereo not given)	inactive
CCCCNC(=O)C(C#N)c1nc2ccccc2nc1N1CCN(Cc2ccc3c(c2)OCO3)CC1 (stereo not given)	inconclusive: 8.1e-09 M
Cc1cc(N2C(=O)C(O)=C(C(=O)c3ccc(C)o3)C2c2cccs2)no1 (stereo not given)	inconclusive: 2.4e-09 M
O=C(NCc1ccncc1)c1c(F)c(F)c(F)c(F)c1F	inconclusive: 1.2e-09 M
CCCC(C(=O)OCCN(CC)CC)(c1ccccc1)c1ccccc1	inconclusive: 8e-09 M
CN(C)c1ncc2nc(-c3cccs3)c(=O)n(CCc3ccccc3)c2n1	inconclusive: 7e-09 M
CCCCCc1c(C)nc(N2CCc3ccccc32)[nH]c1=O	inconclusive: 1.1e-09 M
O=C(CCCn1c(=O)c2sccc2n(Cc2ccc(F)cc2)c1=O)NCc1ccco1	inactive
Cc1ccc(S(=O)(=O)c2cc3c(=O)n4ccccc4nc3n(Cc3ccco3)c2=N)cc1	active: 7.7e-08 M
CC(=O)C1=C(O)C(=O)N(Cc2cccnc2)C1c1ccccc1Cl (stereo not given)	inconclusive: 1.5e-09 M
COc1ccc(-n2c(=O)c(-c3ccc(Cl)cc3)nc3cnc(N(C)C)nc32)cc1	active: 1e-08 M
Cc1ccc(N2CC(C(=O)Nc3nccs3)CC2=O)cc1 (stereo not given)	inconclusive: 1.3e-09 M
COc1cccc(NC(=O)Cc2cn(C)c3ccccc23)c1	inactive
C=C(C)n1c(=O)[nH]c2ccccc21	inconclusive: 6.9e-09 M
Cc1ccc(-c2nc(-c3cccnc3)no2)c(C)c1	inconclusive: 1.6e-09 M
CC1(C)Oc2ccc(C(=O)N3CCOCC3)cc2N(CC(=O)Nc2ccccc2)C1=O	inconclusive: 1.5e-09 M
O=C(CCC1N=C2c3ccccc3N=C(SCc3ccc(Cl)cc3)N2C1=O)NCc1ccco1 (stereo not given)	active: 3.1e-08 M
O=c1c(-c2cc(F)cc(F)c2)nc2cnc(Oc3ccccc3)nc2n1C[C@H]1CCCO1	active: 1.5e-08 M
COCCn1c(=O)c(-c2ccc(Cl)cc2)nc2cnc(Oc3ccccc3)nc21	inconclusive: 3.9e-09 M
Cc1noc(C)c1S(=O)(=O)N1CCC(C(=O)N2CCN(c3ccc(Cl)cc3)CC2)CC1	inactive
Cc1ccc(C(=O)OCC(=O)Nc2ccc3c(c2)OCO3)o1	inconclusive: 2.5e-09 M
COc1ccc(C(c2c(O)ccc3ccccc23)N2CCOCC2)c(OC)c1 (stereo not given)	inconclusive: 4.1e-09 M
CC(Oc1ccc(Cl)cc1Cl)c1nc(-c2ccc(NC(=O)c3cccnc3)cc2)no1 (stereo not given)	inactive
O=C(Nc1ccccc1)N1CC2(CCN(C(=O)c3ccco3)CC2)C1	inactive
O=C(NCc1cccnc1)C1CC(c2ccc(F)cc2)=NO1 (stereo not given)	inactive
CCCC(=O)n1nc(-c2ccc(OC)cc2)nc1N	inconclusive: 8.3e-09 M
COC(=O)C1=C(C)Nc2c(c(=O)n(C)c(=O)n2C)C1c1cccs1 (stereo not given)	inconclusive: 2.6e-09 M

In the list so far, 2 contain an NH in an aromatic ring.
SMILES	max dye-equivalent concentration
CCCCCc1c(C)nc(N2CCc3ccccc32)[nH]c1=O	inconclusive: 1.1e-09 M
C=C(C)n1c(=O)[nH]c2ccccc21	inconclusive: 6.9e-09 M

Remaining list, next part

SMILES	max dye-equivalent concentration
COC(=O)c1ccc(NC(=O)c2sc3nc(-c4ccccc4)cn3c2C)cc1	inconclusive: 2e-09 M
O=C(CN1CCN(S(=O)(=O)c2ccc(F)cc2)CC1)Nc1cc(C(F)(F)F)ccc1Cl	inconclusive: 1.2e-09 M
Cn1c(=O)c(-c2ccc(F)cc2)nc2cnc(Oc3ccccc3)nc21	inconclusive: 1.2e-09 M
Clc1ccc2nc(SCc3nnc(-c4ccccc4)o3)[nH]c2c1	inactive
NC(=O)c1ccc(NS(=O)(=O)c2ccccc2F)cc1	inconclusive: 6.9e-09 M
Clc1ccccc1C(c1ccccc1)(c1ccccc1)n1ccnc1	inconclusive: 1.7e-09 M and inconclusive: 2.3e-09 M
Cc1nc2ccccn2c1/C(O)=C1\C(=O)C(=O)N(CCN2CCOCC2)C1c1ccncc1 (stereo not given)	inconclusive: 2.2e-09 M
CCc1ccc2[nH]c(=O)c(CN(Cc3ccco3)S(=O)(=O)c3ccc4c(c3)OCCO4)cc2c1	inconclusive: 2.4e-09 M
CCOC(=O)c1oc2c(C)c(O)ccc2c(=O)c1-c1nncn1-c1ccccc1	inconclusive: 1.5e-09 M
Cc1c(O)c(CN2CCCC2)cc2c3c(c(=O)oc12)CCC3	active: 1.5e-05 M
Cn1c(=N)c(S(=O)(=O)c2ccc(F)cc2)cc2c(=O)n3ccccc3nc21	active: 6.3e-07 M
O=C(Nc1ccc(-c2cn3ccsc3n2)cc1)C1CCCC1	inactive
Cc1oc2cc(O)cc(C)c2c(=O)c1-c1cnn(-c2ccccc2)c1	inconclusive: 2.1e-09 M
Cc1ccc2c(c1)sc1ncc(NC(=O)c3ccccc3)c(=O)n12	active: 6.5e-08 M
O=C(CCC(=O)c1cccs1)OCc1nc2ccccc2s1	inconclusive: 1.7e-09 M
COC(=O)Cn1c(=O)sc2ccccc21	inactive
COc1ccc(S(=O)(=O)N2CCOCC2)cc1C(=O)Nc1cc(C)on1	inconclusive: 1.3e-09 M
O=C(Nc1cc(C(=O)N2CCCC2)ccc1N1CCCC1)c1ccccc1	inconclusive: 5.3e-09 M
Cc1ccc(-n2nc3c(c2NC(=O)c2ccc4c(c2)OCO4)CSC3)c(C)c1	inconclusive: 3.2e-09 M
Nc1c(NCc2ccccc2)c2ccccc2oc1=O	inactive
CC(=O)c1cc2c(cc1NC(=O)CCc1ccccc1)OCO2	inconclusive: 9.1e-09 M
Cc1noc(/C=C/c2ccco2)c1S(=O)(=O)N1CCC(C(=O)N2CCc3ccccc3C2)CC1	inconclusive: 6.6e-09 M
CCn1c2ccccc2c2cc(C3N=C(N)Nc4nc5ccccc5n43)ccc21 (stereo not given)	inconclusive: 1.1e-09 M
CCOCCCNC(=O)C1CCC(=O)N1CCc1ccccc1 (stereo not given)	inconclusive: 1.5e-09 M
CC(=O)Nc1ccc(-c2cc(C(=O)O)c3cc4ccccc4cc3n2)cc1	active: 1.9e-07 M
O=C(Oc1ccccc1)N1CCC2(CC1)CCN(c1ncccn1)CC2	inactive
Cc1cnc(CNc2nc(-c3ccoc3)nc3ccccc23)cn1	inactive
